Measured values from PMC11637768.
Results are given in words; binding and its absence hold for the method and conditions named. In cells and extracts the contact can be indirect. These calls come from enrichment with a bait or labelling near it, and not all partners need be listed.

Biological target: YELLOW, SERRATED LEAF (YSL)-His fusion protein (Arabidopsis thaliana)
Assay: affinity purification with mass spectrometry; YSL-His from E. coli purified by His magnetic beads; interacting proteins pulled down from the total protein of Arabidopsis plants; mass spectrometry; only the target purified

B1: VH1-interacting kinase (VIK), endogenous (protein, UniProt Q9XI87 1-438)
chain: MSSDSPAAGDGGEQAAAGTSVPSPSYDKQKEKARVSRTSLILWHAHQNDAAAVRKLLEEDPTLVHARDYDKRTPLHVASLHGWIDVVKCLLEFGADVNAQDRWKNTPLADAEGARKQKMIELLKSHGGLSYGQNGSHFEPKPVPPPIPKKCDWEIEPAELDFSNAAMIGKGSFGEIVKAYWRGTPVAVKRILPSLSDDRLVIQDFRHEVDLLVKLRHPNIVQFLGAVTERKPLMLITEYLRGGDLHQYLKEKGGLTPTTAVNFALDIARGMTYLHNEPNVIIHRDLKPRNVLLVNSSADHLKVGDFGLSKLIKVQNSHDVYKMTGETGSYRYMAPEVFKHRRYDKKVDVFSFAMILYEMLEGEPPFANHEPYEAAKHVSDGHRPTFRSKGCTPDLRELIVKCWDADMNQRPSFLDILKRLEKIKETLPSDHHWGLFTS
binding: binds
